{"sequences": {"note": "By UniProt entry, the sequences of proteins in these tests, tags left out.", "UniProt Q16665": "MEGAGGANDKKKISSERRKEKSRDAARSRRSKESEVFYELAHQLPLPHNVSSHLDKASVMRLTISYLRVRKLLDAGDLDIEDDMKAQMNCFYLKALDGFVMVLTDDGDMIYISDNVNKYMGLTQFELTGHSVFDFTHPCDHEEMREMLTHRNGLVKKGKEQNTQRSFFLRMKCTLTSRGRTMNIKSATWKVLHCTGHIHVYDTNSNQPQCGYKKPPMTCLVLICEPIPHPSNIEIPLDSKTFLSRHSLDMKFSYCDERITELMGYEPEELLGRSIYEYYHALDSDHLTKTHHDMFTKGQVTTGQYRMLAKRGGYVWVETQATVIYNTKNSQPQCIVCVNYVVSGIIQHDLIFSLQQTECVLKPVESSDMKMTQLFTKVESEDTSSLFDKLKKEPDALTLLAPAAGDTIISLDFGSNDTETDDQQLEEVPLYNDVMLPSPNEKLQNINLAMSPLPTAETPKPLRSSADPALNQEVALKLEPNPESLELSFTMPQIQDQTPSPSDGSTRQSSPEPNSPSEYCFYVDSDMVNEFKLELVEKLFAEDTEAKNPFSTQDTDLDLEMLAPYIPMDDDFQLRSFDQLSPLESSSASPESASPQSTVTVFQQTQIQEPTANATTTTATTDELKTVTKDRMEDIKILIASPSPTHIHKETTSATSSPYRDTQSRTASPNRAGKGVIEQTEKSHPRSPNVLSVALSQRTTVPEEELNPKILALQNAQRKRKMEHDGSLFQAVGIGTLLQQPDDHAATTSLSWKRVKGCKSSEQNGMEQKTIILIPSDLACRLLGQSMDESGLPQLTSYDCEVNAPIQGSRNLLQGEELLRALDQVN", "UniProt Q6GQQ9": "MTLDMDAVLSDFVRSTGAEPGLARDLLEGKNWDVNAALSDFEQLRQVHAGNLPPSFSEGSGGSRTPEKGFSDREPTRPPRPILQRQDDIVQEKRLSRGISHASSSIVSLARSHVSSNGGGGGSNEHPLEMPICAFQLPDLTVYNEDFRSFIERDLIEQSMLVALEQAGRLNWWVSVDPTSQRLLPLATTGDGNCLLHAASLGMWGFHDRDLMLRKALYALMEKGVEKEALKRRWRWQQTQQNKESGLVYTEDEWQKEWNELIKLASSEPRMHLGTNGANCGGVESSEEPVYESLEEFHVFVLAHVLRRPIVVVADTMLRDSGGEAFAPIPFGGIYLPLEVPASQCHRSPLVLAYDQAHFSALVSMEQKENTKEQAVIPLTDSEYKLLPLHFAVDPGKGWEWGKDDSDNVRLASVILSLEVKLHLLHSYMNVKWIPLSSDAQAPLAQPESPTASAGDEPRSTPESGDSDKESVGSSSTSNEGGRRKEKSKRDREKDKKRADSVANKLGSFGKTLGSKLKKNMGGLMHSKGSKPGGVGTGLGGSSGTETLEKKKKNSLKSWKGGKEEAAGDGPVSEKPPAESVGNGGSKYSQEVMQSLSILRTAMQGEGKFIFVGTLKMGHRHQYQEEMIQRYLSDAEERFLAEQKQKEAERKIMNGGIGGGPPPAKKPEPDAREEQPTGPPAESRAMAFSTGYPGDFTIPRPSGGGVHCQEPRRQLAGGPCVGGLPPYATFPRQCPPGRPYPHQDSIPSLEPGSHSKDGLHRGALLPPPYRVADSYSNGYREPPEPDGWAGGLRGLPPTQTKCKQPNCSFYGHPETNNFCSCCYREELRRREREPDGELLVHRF"}, "source": "paper PMC12308248", "key": {"[1]": {"molecular_target": "HA-HIF-1α (UniProt Q16665)", "assay": "co-IP; HA-HIF-1α and FLAG-OTUD7B ectopically expressed in TE-8 cells; lysate subjected to IP with anti-FLAG/HA antibody, western blot"}, "[2]": {"molecular_target": "FLAG-OTUD7B (human) (UniProt Q6GQQ9)", "assay": "co-IP; HA-HIF-1α and FLAG-OTUD7B ectopically expressed in TE-8 cells; lysate subjected to IP with anti-FLAG/HA antibody, western blot"}, "[3]": {"molecular_target": "ovarian tumor deubiquitinase 7B (OTUD7B), endogenous (human (endogenous in TE-8)) (UniProt Q6GQQ9)", "assay": "co-IP; endogenous proteins; TE-8 cell lysates in RIPA buffer incubated overnight at 4°C with antibodies to OTUD7B or HIF-1α, protein A/G agarose beads, western blot"}, "[4]": {"molecular_target": "hypoxia-inducible factor-1α (HIF-1α), endogenous (human (endogenous in TE-8)) (UniProt Q16665)", "assay": "co-IP; endogenous proteins; TE-8 cell lysates in RIPA buffer incubated overnight at 4°C with antibodies to OTUD7B or HIF-1α, protein A/G agarose beads, western blot"}}, "note": "Results are given in words; binding and its absence hold for the method and conditions named. In cells and extracts the contact can be indirect. Some binding calls cover weakened binding; strength is not graded here.", "data": [{"substance": "FLAG-OTUD7B (from UniProt Q6GQQ9 1-843) (enzyme)", "values": [{"measurement": "binding", "setting": "[1]", "value": "binds"}]}, {"substance": "HA-HIF-1α (from UniProt Q16665 1-826)", "values": [{"measurement": "binding", "setting": "[2]", "value": "binds"}]}, {"substance": "hypoxia-inducible factor-1α (HIF-1α), endogenous (from UniProt Q16665 1-826)", "values": [{"measurement": "binding", "setting": "[3]", "value": "binds"}]}, {"substance": "ovarian tumor deubiquitinase 7B (OTUD7B), endogenous (from UniProt Q6GQQ9 1-843) (enzyme)", "values": [{"measurement": "binding", "setting": "[4]", "value": "binds"}]}]}
